Test results taken from US6750348B1, “Chemokine receptor binding heterocyclic compounds” (AnorMED, Inc., priority 1999, dated 2004).
Some of these results come from one statement about several compounds together. At least one structure is not confirmed: it was looked up by name or label, or the drawing left a doubt.

Assays:
[1] = tested on: SDF-1α induced Ca flux in SUP-T1 cells; assay: Inhibition of SDF-1α induced Ca flux in SUP-T1 cells (FLIPR); format: cell-based; conditions: at 20 μg/mL
Procedure: Loading dye: Fluo-3, AM (Molecular Probes F-1241) is dissolved in anhydrous DMSO and stored frozen in aliquots. To increase the solubility of the dye in the loading medium, 10% (w/v) pluronic acid (Molecular Probes F-127) is added to the Fluo-3 stock solution immediately before use.
HBSS+20 mM Hepes buffer+0.2% BSA, pH 7.4. HBSS 10× [(w/o phenol red and sodium bicarbonate (Gibco 14 065-049)]; Hepes buffer 1M (Gibco 15 630-056), BSA (Sigma A3675). The flux buffer is vacuum-filtered and stored refrigerated for a maximum of 5 days. Before use in the experiment, the buffer is warmed at 37° C. in a waterbath.
The test compounds were diluted in flux buffer and added to 4 wells of a black microplate (4 parallel measurements per compound).
The chemokines are diluted in flux buffer to concentrations that are 4-fold higher than the desired concentrations required for stimulation of the cells (i.e. 2.5 nM for SDF-1α and 0.6 nM for RANTES). The chemokines were added to untreated 96-well Sero well compound plates (International Medical, Sterilin code 611F96). In the negative control well's (baseline monitoring), flux buffer is added instead of chemokine. As a positive control to check for dye loading efficiency, 20 μM digitonin (final concentration) was also included. The agonist plate was incubated in the FLIPR (37° C.) for 15-30 min.
SUP-T1 cells were centrifuged at room temperature (RT) and re-suspended in loading medium (RPMI-1640 containing 2% FBS and 4 μM Fluo-3, AM). The cells were incubate at room temperature for 45 min. then washed twice in flux buffer then incubated in flux buffer at room temperature for 10 min. The cells were centrifuged and re-suspended in flux buffer at a density of 3×10^6 cells per mL. […] The microplate is then gently centrifuged at room temperature. Homogeneous spreading of the cells on the bottom of the microplate wells was then confirmed with a microscope and the microplate was incubated in the FLIPR (37° C.) for 10 min. prior to testing.
The FLIPR settings (camera exposure time and laser power) are adjusted to obtain initial fluorescence values between 8,000 and 10,000 units. After monitoring a 20 second-baseline, the agonist (chemokine) (50 μL) is added by automatic pipettor with black pipette tips. Fluorescence is measured simultaneously in all wells of the microplate every 2 seconds (first 2 min) and thereafter every 6 seconds (additional 2 min). The average ca-flux measured in each set of 4 identical wells (one test compound) was calculated by the FLIPR software.
The compounds of the current invention were tested for inhibition of SDF-1α induced Ca flux in SUP-T1 cells using the method described above.

HIV-1 NL4.3 or IIIB = assay: Inhibition of HIV-1 (NL4.3 or IIIB) replication in MT-4 cells (MTT); format: cell-based
Procedure: Compounds were tested for their ability to inhibit HIV-1 replication in MT-4 cells or PBMC's (peripheral blood mononucleocytes) using published procedures (for example, see: Labrosse et al. J. Virol. 1998, 6381-6388; Simmons et al. J. Virol. 1998, 8453-8457; Donzella et al. Nature Medicine 1998, 72-77; Schols et al. J. Exp. Med. 1997, 1383-1388; De Clercq et al. Antiviral Res. 1997, 147-156; and Bridger et al. U.S. patent application Ser. No. 09/111,895). In addition to the above references, experimental methods for performing anti-viral assays can also be found in: Bridger et al. J. Med. Chem. 1995, 38, 366-378; Bridger et al. J. Med. Chem. 1996, 39, 109-119; Bridger et al. U.S. Pat. No. 5,698,546; Bridger et al. U.S. Pat. No. 5,583,131; Bridger et al. U.S. Pat. No. 5,817,807; De Clercq et al. Antimicrob. Agents and Chemother. 1994, 38, 668-674.
1. The HIV-1 strains NL4.3 and IIIB are T-tropic strains that exclusively use CXCR4 as the co-receptor for entry into cells. MT-4 Cells express CXCR4 but not CCR5.
Inhibition of HIV-1 NL4.3 (or IIIB) replication assays were performed as previously described (Bridger et al. J. Med. Chem. 1999, 42, 3971-3981; De Clercq et al. Proc. Natl. Acad. Sci, 1992, 89, 5286-5290; De Clercq et al. Antimicrob. Agents Chemother. 1994, 38, 668-674; Bridger et al. J. Med. Chem. 1995, 38, 366-378). Anti-HIV activity and cytotoxicity measurements were carried out in parallel. They were based on the viability of MT-4 cells that had been infected with HIV in the presence of various concentrations of the test compounds. After the MT-4 cells were allowed to proliferate for 5 days, the number of viable cells was quantified by a tetrazolium-based calorimetric 3-(4,5-dimethylthiazol-2-yl)-2,5-diphenyltetrazolium bromide (MTT) procedure in 96-well microtrays. In all of these assays, viral input (viral multiplicity of infection, MOI) was 0.01, or 100 times the 50% cell culture infective dose (CCID50). The EC50 was defined as the concentration required to protect 50% of the virus-infected cells against viral cytopathicity.

| Molecule | inhibited SDF-1α induced Ca flux [1] [%] | EC50, inhibition of HIV-1 NL4.3 or IIIB replication (HIV-1 NL4.3 or IIIB) [µg/mL] |
| --- | --- | --- |
| NC(Cc1ccccc1)CN(Cc1ccc(CNCc2ccccn2)cc1)C1CCCc2cccnc21 (stereo not shown) [Example 16, N-(2-pyridinylmethyl)-N′-[(2-amino-3-phenyl)propyl]-N′-(5,6,7,8-tetrahydro-8-quinolinyl)-1,4-benzenedimethanamine] | > 20 | < 20 |
| CC(=O)N[C@@H](Cc1ccccc1)CN(Cc1ccc(CNCc2ccccn2)cc1)C1CCCc2cccnc21 (stereo partly drawn) [Example 20, N-(2-pyridinylmethyl)-N′-[(S)-(2-acetylamino-3-phenyl)propyl]-N′-(5,6,7,8-tetrahydro-8-quinolinyl)-1,4-benzenedimethanamine] | > 20 | < 20 |
| c1ccc(CNCc2ccc(CN(C[C@@H]3CCCN3)C3CCCc4cccnc43)cc2)nc1 (stereo partly drawn) [Example 23, N-(2-pyridinylmethyl)-N′-[2-(S)-pyrollidinylmethyl]-N′-(5,6,7,8-tetrahydro-8-quinolinyl)-1,4-benzenedimethanamine] | > 20 | < 20 |
| c1ccc(CNCc2ccc(CN(C[C@H]3CCCN3)C3CCCc4cccnc43)cc2)nc1 (stereo partly drawn) [Example 24, N-(2-pyridinylmethyl)-N′-[2-(R)-pyrollidinylmethyl]-N′-(5,6,7,8-tetrahydro-8-quinolinyl)-1,4-benzenedimethanamine] | > 20 | < 20 |
| COc1ccc2c(c1)C(NCc1ccc(C(=O)NCc3ccccn3)cc1)=CCC2 [Example 38, N-(2-pyridinylmethyl)-N′-(7-methoxy-3,4-dihydronaphthalenyl)-1-(aminomethyl)-4-benzamide] |  | < 20 |
| O=C(CN(Cc1ccc(CNCc2ccccn2)cc1)C1CCCc2cccnc21)Nc1ccccc1 (stereo not shown) [Example 58, N-(2-pyridinylmethyl)-N′-[(N″-phenyl)carboxamidomethyl]-N′-(5,6,7,8-tetrahydro-8-quinolinyl)-1,4-benzenedimethanamine] |  | < 20 |
| c1ccc(CNCc2ccc(CN(Cc3ccccn3)C3CCCc4cccnc43)cc2)nc1 (stereo not shown) [Example 92, N,N′-bis(2-pyridinylmethyl)-1,4-(5,6,7,8-tetrahydro-8-quinolinyl)benzenedimethanamine] | > 20 | < 20 |
| N-(2-pyridinylmethyl)-N′-(6-methoxy-3,4-dihydronaphthalenyl)-1-aminomethyl)-4-benzamide [Example 39] |  | < 20 |
